PubChem BioAssay AID1259405 | NCATS, 2018

- Screen: 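Silenced genes that increase secreted GFP made by CHO cells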 (primary screen)
- Cell system: Chinese hamster CHO-K1 ovary cells with stable secreted eGFP expression
- Reagents: single siRNA against mouse genes, 0.8 pmol siRNA per well (2 µl of 400 nM stock)
- Duration: 3 days
- Read-out: 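Per-well intracellular GFP measured by laser scanning cytometry, plus viability from ATP luminescence, each relative to plate median of non-targeting control wells, in %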
- Scale: GFP, % of control: higher = more GFP per well, higher productivity; viability (ATP), % of control: higher = more viable cells (more ATP)
- Call rule: 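Called active when intracellular GFP, relative to negative control, is at or above 120%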
In all, the deposit lists about 50,000 reagents; shown is a random part of them. About 4,000 of them (8%) were called active. 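Mouse siRNA library applied to hamster cells; one well for each siRNA.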 A number with no mark means an inactive call. Reagents against one gene are numbered here.

For Vmn1r10 #1 the deposit lists GFP, % of control 111; viability (ATP), % of control 81.8. For Vmn1r10 #2 the deposit lists GFP, % of control 55.9; viability (ATP), % of control 46.3. Knock-down of Vmn1r10 #3 came out at: GFP, % of control 61.9; viability (ATP), % of control 58.1. Knock-down of Tango6 #1 resulted in: GFP, % of control 51.7; viability (ATP), % of control 64.8. Depletion of Tango6 #2 came out at: GFP, % of control 66.4; viability (ATP), % of control 82.6. Knock-down of Tango6 #3 resulted in: GFP, % of control 80.2; viability (ATP), % of control 89.6.

Cryab #1 showed GFP, % of control 78.1; viability (ATP), % of control 110. With knock-down of Cryab #2 the results were GFP, % of control 84.3; viability (ATP), % of control 85. Pggt1b #1 showed GFP, % of control 109; viability (ATP), % of control 111. Knock-down of Pggt1b #2 came out at: GFP, % of control 57.2; viability (ATP), % of control 98.3. Pggt1b #3 scored GFP, % of control 85.3; viability (ATP), % of control 109. With knock-down of Actrt2 #1, the record shows GFP, % of control 77; viability (ATP), % of control 72.4.

Against Actrt2 #2 the deposit lists GFP, % of control 66.3; viability (ATP), % of control 84. Against Rab22a #1, the entry reads GFP, % of control 55.5; viability (ATP), % of control 96.7. Rab22a #2 gave GFP, % of control 88.9; viability (ATP), % of control 101. For Rab22a #3, the entry reads GFP, % of control 86.8; viability (ATP), % of control 86.2.

2 of these entries, set out differently.
Actrt2 #2
- GFP, % of control: 66.3
- viability (ATP), % of control: 84

Rab22a #1
- GFP, % of control: 55.5
- viability (ATP), % of control: 96.7
